The record followed here is PMC6572854, “Convergent allostery in ribonucleotide reductase” (Nature Communications, 2019).

These are yes or no findings as the source states them, for the method shown. Sequences can lack the tags named with a protein.

The assay deals with Bacillus subtilis class Ib ribonucleotide reductase NrdE (α subunit), wild type, tagless (Bacillus subtilis) (UniProt P50620). Put plainly: condition: only with 1 mM ATP (40 µM holo-NrdE loaded); SEC-SAXS; 40 µM wt holo-NrdE loaded, 1 mM ATP, 0.5 mM CDP, assay buffer with 1% glycerol, 4 °C, evolving factor analysis; both purified.

B1: Bacillus subtilis class Ib ribonucleotide reductase NrdE (α subunit), wild type, tagless (enzyme)
chain: MSQNQVPKWIQLNNEIMIQKDGKFQFDKDKEAVHSYFVDYINQNTVFFHNLKEKLDYLVENQYYEEEFLSLYSFEDIKEVFKTAYAKKFRFPSFMSAFKFYNDYALKTNDKKKILERYEDRISIVALFFANGDTEKAKEYVNLMINQEYQPSTPTFLNAGRKRRGELVSCFLLEVNDSLNDISRAIDISMQLSKLGGGVSLNLSKLRAKGEAIKDVENATKGVVGVMKLLDNAFRYADQMGQRQGSGAAYLNIFHRDINDFLDTKKISADEDVRVKTLSIGVVIPDKFVELAREDKAAYVFYPHTIYKEYGQHMDEMDMNEMYDKFVDNPRVKKEKINPRKLLEKLAMLRSESGYPYIMFQDNVNKVHANNHISKVKFSNLCSEVLQASQVSSYTDYDEEDEIGLDISCNLGSLNILNVMEHKSIEKTVKLATDSLTHVSETTDIRNAPAVRRANKAMKSIGLGAMNLHGYLAQNGIAYESPEARDFANTFFMMVNFYSIQRSAEIAKEKGETFDQYEGSTYATGEYFDKYVSTDFSPKYEKIANLFEGMHIPTTEDWKKLKAFVAEHGMYHSYRLCIAPTGSISYVQSSTASVMPIMERIEERTYGNSKTYYPMPGLASNNWFFYKEAYDMDMFKVVDMIATIQQHIDQGISFTLFLKDTMTTRDLNRIDLYAHHRGIKTIYYARTKDTGQDSCLSCVV
notes: NrdE, α subunit of the class Ib ribonucleotide reductase of Bacillus subtilis; holo-NrdE carries the co-purified dAMP ligand, apo-NrdE is nucleotide-free; same polypeptide; also called wt apo-NrdE (dAMP-free)
Regarding B1, the binding entry is “no binding”.
